B1: il10ra_site1_sap_20_mot_HHH_b1_05126_000000053_0001_38_52_H_._HHH_b2_05116_af2_0001_0000900047_0000001_0_0001 (protein)
chain: SSDEREELKEEVEEEVEKAVENKDPELVKEIIAKALMEAARLRDDQLSMAIIRIYARANQLLQSS
B2: il10ra_site1_normal_mot_HHH_b1_06348_000000162_0001_1_15_H_._HHH_b1_08757_0001_0000100002_0000002_0_af2pred_0001 (protein)
chain: SSSSSNAQELYELLRKAAELHFDGNPEEARRVLEEAEELAEEAGDLNLLAVIEYMLELARSSSSS
B3: il10ra_site1_sap_22_mot_HHH_b2_06812_af2_000000299_0001_41_56_H_._6b926b9cc833b1484481a9987f373d78_0001_0001_0000100001_0000002_0_0001 (protein)
chain: SSSSDVEEEVRRLIEEAEELLERGNPREAMKLIAEALQHALRAGNPELFQELWEIAKEIAKSSSS
B4: il10ra_site1_sap_14_mot_HHH_b2_05343_000000235_0001_19_35_H_._HHH_b2_05666_0001_0000600037_0000001_0_0001 (protein)
chain: SSSSDQEFYKAVEEAIEKAIKLEKNGNPEEAERLLEEILEKAEELGNWAARWSIRHLLELLSSSS
B5: il10ra_site1_normal_mot_HHH_b1_03094_000000294_0001_1_20_H_._HHH_b2_02427_0001_0000400035_0000001_0 (protein)
chain: SSSSSDREEVLELAILALRLALRGNPEEARKVLEEAFELAEELGSEQALRVIEELLRTLNSSSSS
B6: il10ra_site1_normal_mot_HHH_b1_01082_af2_000000031_0001_3_19_H_._HHH_b1_08661_af2_0001_0000300027_0000001_0 (protein)
chain: SSSSSEELYEFVKKVIEEAIELWENGNPEEAQKLVEEAIEYIEERNNVAAAFSLKHLRRVLSSSS
B7: il10ra_site1_sap_3_mot_HHH_b2_07848_af2_000000174_0001_23_38_H_._HHH_b1_05395_af2_0001_0000100004_0000001_0_0001 (protein)
chain: SSSSDEKEEVLELIKEAFHLLLRGDPEEAEKVLERAFEIVEELGDERAKRMLESLLEIVRSSSSS
B8: il10ra_site1_normal_mot_HHH_b2_06979_000000158_0001_42_57_H_._HHH_b1_03932_af2_0001_0000600026_0000001_0_af2pred_0001 (protein)
chain: SSSSDRRELIERAYELLKRAAKIEDEEEVEELLREARELAEEAGNELLAEAIKSRERQLLSSSSS
B9: il10ra_site1_normal_mot_HHH_b1_02397_af2_000000085_0001_39_57_H_._HHH_b1_05840_0001_0000300026_0000002_0 (protein)
chain: SSSSDEEQERLEELLEELEELTERGDDERFAEVALEALRLAFELRDEEVLQKLWELVRLVSSSSS
B10: il10ra_site1_sap_15_mot_HHH_b1_00456_000000263_0001_1_17_H_._HHH_b2_03790_0001_0000300014_0000001_0_0001 (protein)
chain: SSSSSDETQEVYELIKEALNIDDPEEAREVLEEAEEIARELGNWVLERAVEAAKRAIEASSSSSS
B11: il10ra_site1_normal_mot_HHH_b1_05056_000000217_0001_1_20_H_._HHH_b1_07850_0001_0000700022_0000001_1 (protein)
chain: SSSSSSDAEEIVEELLEEAEHIEDPRERAEVLQEATHHAIRAQNPELLQLVWKVVKRLSSSSSSS
B12: il10ra_site1_normal_mot_HHH_b2_00475_000000107_0001_44_57_H_._HHH_b2_01638_af2_0001_0000900052_0000002_0 (protein)
chain: SSSSEAEQRVAELLFRALRLLYEGNPEEAKEVVEEARRLAEENNDEELEEYVRILKHFIESHSSS
B13: il10ra_site1_normal_mot_HHH_b1_01011_000000096_0001_1_19_H_._HHH_b2_00319_0001_0000100004_0000002_0 (protein)
chain: SSSSSEEEEYLRLSLRFLEWAIKAGDKEAARRLIRAIEDFVERSNNEEAKEELERLEEELKSSSS
B14: il10ra_site1_sap_15_mot_HHH_b1_06798_000000292_0001_1_19_H_._HHH_b2_08144_0001_0000200006_0000001_0_0001_af2pred_0001 (protein)
chain: SSSSSEEEVLELARRVIEALKNGNPEEAEKLIEEIERLAEELNDPRVKAIARLLREALEHSSSSS
B15: il10ra_site1_normal_mot_8756ee2cf497b5429c717dfc0c0bcfd6_0001_000000186_0001_1_13_H_._HHH_b2_01636_af2_0001_0000400010_0000001_0 (protein)
chain: SSSSDLSQEVAELLERVAELDNRGDEEEARKLLEEAKELAEEANNDVLRFQVEYLERLLNSSSSS
B16: il10ra_site1_sap_23_mot_HHH_b1_08411_af2_000000053_0001_1_20_H_._HHH_b2_03761_0001_0000300018_0000001_0_0001 (protein)
chain: SSSSDEEVQEYVRLTLRFVRWLREAGDPEAAEFFLRAAKDMAKKANDPELEREIEEVEEEISSSS
B17: il10ra_site1_normal_mot_HHH_b1_06816_000000239_0001_1_19_H_._HHH_b2_02034_0001_0000300012_0000001_0_af2pred_0001 (protein)
chain: SSSSSSDLEEQAEELLEEVEKIDNPEERTEVARKAIKLAVRAGNPELAREISRTATKLSSSSSSS
B18: il10ra_site1_sap_18_mot_HHH_b2_07442_000000239_0001_40_54_H_._HHH_b1_05032_af2_0002_0000900036_0000001_0_0001 (protein)
chain: SSSSSEEEERVEELLEEAKRIDDREKLIRVLLEALQIALRAGNEELLQEIWRLFRRLIEEVSSSS
B19: il10ra_site1_normal_mot_HHH_b2_03220_af2_000000223_0001_23_40_H_._HHH_b1_08499_0001_0000100001_0000001_0 (protein)
chain: SSSSDVAERAWELSRRALELLAEGNPEEARELLEEAEELLEERGNRVLLFNVELLLRDLNSSSSS

The list shows a part of the results.

This test deals with il10ra, Q13651. The test can be described thus: yeast display titration.
For B1, the “apparent Kd” value was “inactive: no binding seen”.

Regarding B2, the “apparent Kd” value is “inactive: no binding seen”.

B3: the “apparent Kd” value was “inactive: no binding seen”.

As for B4, the “apparent Kd” value was “inactive: no binding seen”.

On to B5, for which the “apparent Kd” value was “inactive: no binding seen”.

With B6, the “apparent Kd” value was “inactive: no binding seen”.

Consider B7, for which the “apparent Kd” value is “inactive: no binding seen”.

For the molecule B8, the “apparent Kd” value is “inactive: no binding seen”.

As to B9, the “apparent Kd” value is “inactive: no binding seen”.

In the case of B10, the “apparent Kd” value is “inactive: no binding seen”.

Regarding B11, the “apparent Kd” value is “inactive: no binding seen”.

B12: the “apparent Kd” value is “inactive: no binding seen”.

For the molecule B13, the “apparent Kd” value is “inactive: no binding seen”.

For the molecule B14, the “apparent Kd” value is “inactive: no binding seen”.

As for B15, the “apparent Kd” value is “inactive: no binding seen”.

For B16, the “apparent Kd” value is “inactive: no binding seen”.

In the case of B17, the “apparent Kd” value was “inactive: no binding seen”.

On to B18, for which the “apparent Kd” value is “inactive: no binding seen”.

B19: the “apparent Kd” value was “inactive: no binding seen”.

(Values after PMC10163288.)
